# Measured values published in PubChem BioAssay AID2685 (National Center for Advancing Translational Sciences (NCATS), 2010).
# This is one part of the list. These are further read-outs of the screen, such as a control signal, another cell line or another target. No call is given for them. The list favours compounds with an active or inconclusive main result. The note in brackets gives the kind of curve behind each potency; many fits are weak.
# Test: qHTS Assay for Lipid Storage Modulators in Drosophila S3 Cells;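 on cell number change: cells counted by Cell Tracker Red CMTPX staining in the red channel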
# Conditions: BODIPY lipid droplet fluorescence, 18-24 h; for cell number change: measured here: cell count max response, cells fed with added oleic acid
# Method in brief: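 Drosophila S3 cells got compounds at several concentrations plus oleic acid (400 uM solution). Laser-scanning cytometry with 488 nm excitation read lipid droplets at 500-530 nm and cells at 575-640 nm. Percent activity was relative to 20 uM Triacsin C.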
# [1] = measured here: cell number channel AC50, cells fed with added oleic acid
# [2] = measured here: lipid fluorescence (Fed channel) AC50, cells fed with added oleic acid
Compound,cell number change,AC50 [1],AC50 [2]
CC(Oc1ccccc1)C(=O)Nc1cccc(F)c1 (configuration not stated),-6.22%,"0.731 µM [falling, full curve]","3.26 µM [falling, full curve]"
CCOC(=O)C1=C(C)N(c2ccccc2)C(=O)NC1c1cccc([N+](=O)[O-])c1 (configuration not stated),1.83%,–,"23.1 µM [rising, single point]"
O=C(NCCC1=CCCCC1)C1CCN(C(=O)Nc2ccccc2)CC1,-39.9%,"5.17 µM [falling, full curve]","18.4 µM [falling, partial curve]"
COc1cc(/C=N/n2cnnc2)ccc1OCc1ccccc1,-6.53%,–,–
COc1ccc(-c2nc3ncccc3o2)cc1NC(=O)c1cccs1,12.6%,–,"6.51 µM [falling, single point]"
Cc1ccc(-n2[nH]c(C)c(/C=N/N3C(=O)c4cccc5cccc(c45)C3=O)c2=O)cc1,-27.8%,–,–
Cc1c(Cl)cccc1NC(=O)C1COc2ccccc2O1 (configuration not stated),10.3%,–,–
COc1cc(C)ccc1OCCOCCOc1cccc2ccc(C)nc12,3.49%,"0.146 µM [falling, partial curve, poor fit]","0.146 µM [falling, full curve, poor fit]"
COc1ccc(CCNC(=O)c2ccc(CNS(=O)(=O)c3ccccc3)cc2)cc1OC,35.5%,"13 µM [rising, partial curve, poor fit]",–
CC(C)NC(=O)CSc1nnc(C2CC2)n1-c1ccccc1,-4.83%,"0.0731 µM [rising, full curve, poor fit]","4.11 µM [rising, partial curve, poor fit]"
COc1ccc(CCNCC2C(Oc3ccc(Cl)cc3)C(=O)N2c2ccccc2C)cc1OC (configuration not stated),-19%,–,–
O=C(Nc1ccccc1F)c1ccc(C(=O)c2ccccc2)cc1,-45.5%,"29.1 µM [falling, single point]","32.6 µM [falling, partial curve]"
C/C=C\C=C/C(=O)Nc1cccc(C2=NOC3(C2)C[C@@H](C(N)=O)N(C(=O)C2(C)CC2)C3)c1 (some centres not stated),3.83%,–,"6.51 µM [rising, single point]"
O=C(Nc1cccc(-c2ccc(N3CCCCC3)nn2)c1)C(F)(F)F,-59.5%,"16.4 µM [falling, single point]",–
COc1cccc(N(CC(=O)NC2CCCCC2)C(=O)CCC(=O)Nc2nc(C)cs2)c1,-4.35%,–,"6.51 µM [rising, partial curve, poor fit]"
COc1ccc(N(C(=O)c2ccncc2)S(=O)(=O)c2cccc([N+](=O)[O-])c2)cc1,20.6%,–,"0.092 µM [rising, full curve, poor fit]"
CCn1c(SCC(=O)Nc2cc(C)on2)nnc1-c1cccc(C)c1,-2.63%,–,–
CCn1c(CCC(=O)O)nc2cc(S(=O)(=O)N(C)C)ccc21,9.34%,–,"2.91 µM [falling, single point]"
CCc1ccccc1N(C(=O)c1snc(C(N)=O)c1N)C(C(=O)NCC1CCCO1)c1ccc(N(C)C)cc1 (configuration not stated),13.3%,–,"1.64 µM [rising, partial curve]"
CCOC(=O)c1ccc(S(=O)(=O)N2CC(=O)Nc3ccccc32)cc1,7.56%,–,–

Compound,cell number change,AC50 [1],AC50 [2]
N#CC(C#N)=C1NC2(CCCCC2)Cc2ccccc21,11.5%,–,"0.58 µM [rising, full curve]"
Cc1sc2nc(CSc3ccccc3)nc(N3CCOCC3)c2c1C,12.3%,–,"9.2 µM [rising, partial curve]"
CCOc1cc(/C=N/NC(=O)Cn2nc([N+](=O)[O-])cc2C)cc(Br)c1OCc1ccccc1C,-2.83%,–,"0.13 µM [rising, full curve, poor fit]"
O=C(CN1N=C(c2ccc(Cl)cc2)CCC1=O)NCCN1CCc2ccccc2C1,-20.3%,–,"32.6 µM [falling, single point]"
Cc1ccc(N(O)C(=O)OCCNC(=O)Nc2ccccc2)cc1,-32%,"0.461 µM [falling, full curve, poor fit]","0.116 µM [falling, single point]"
COCCn1c(SCC(=O)c2cc(C)n(C)c2C)nc2ccccc2c1=O,–,"0.58 µM [rising, single point]","1.3 µM [rising, single point]"
COc1ccc(C(=O)NCCNC(=O)c2cnccn2)cc1OC,10.3%,–,"6.51 µM [falling, partial curve]"
CCOC(=O)c1sc(NC(=S)NC(=O)c2ccccc2)c(C(=O)OCC)c1C,6.19%,–,"0.731 µM [rising, full curve, poor fit]"
COc1c2ccc(C(=O)NCc3cc(C(F)(F)F)cc(C(F)(F)F)c3)cc2nn1C,31.5%,"11.6 µM [rising, partial curve]","11.6 µM [rising, partial curve]"
O=C(c1ccccc1)N1N=C(c2ccccc2)CC1c1ccccc1[N+](=O)[O-] (configuration not stated),45.5%,"29.1 µM [rising, partial curve, poor fit]","23.1 µM [rising, single point]"
COc1ccc(N2C(=NC(=O)CCC3CCCC3)SC3CS(=O)(=O)CC32)cc1 (configuration not stated),18.3%,–,–
Cc1cc(Br)ccc1SCC(=O)Nc1cccnc1,2.47%,–,"0.00411 µM [falling, full curve, poor fit]"
COc1ccccc1CNC(=O)COc1ccc(Br)c(C)c1,2.1%,–,"7.31 µM [rising, single point]"
CCCN(C(=O)c1cc(S(=O)(=O)N2CCCCCC2)ccc1OC)C1CCS(=O)(=O)C1 (configuration not stated),60%,"16.4 µM [rising, single point]",–
CN1CCN(C(=O)/C(=C\c2cccs2)NC(=O)c2ccccc2)CC1,34.3%,–,"29.1 µM [rising, single point]"
CC(C)(C)c1ccccc1NC(=O)N1CCNC(=O)C1CC(=O)Nc1ccc(F)cc1 (configuration not stated),11.4%,–,"16.4 µM [rising, single point]"
Cc1cc(C)cc(C(=O)OCC(=O)NCC(F)(F)F)c1,–,–,"2.91 µM [rising, single point]"
CC[C@H](C)[C@H](NC(N)=O)C(=O)NCCc1ccc(Cl)cc1Cl,-44.5%,"32.6 µM [falling, single point]","29.1 µM [falling, partial curve, poor fit]"
CCc1c(C(=O)Nc2nnc(C3CC3)s2)csc1C,6.81%,–,"5.8 µM [rising, single point]"
CCCN1CCN(C(c2cc3cc4c(cc3[nH]c2=O)OCO4)c2nnnn2C(C)(C)C)CC1 (configuration not stated),-18%,–,"29.1 µM [rising, single point]"

# Some of the entries so far, bar-delimited:
Compound | cell number change | AC50 [1] | AC50 [2]
CC(Oc1ccccc1)C(=O)Nc1cccc(F)c1 (configuration not stated) | -6.22% | 0.731 µM [falling, full curve] | 3.26 µM [falling, full curve]
CCOC(=O)C1=C(C)N(c2ccccc2)C(=O)NC1c1cccc([N+](=O)[O-])c1 (configuration not stated) | 1.83% | – | 23.1 µM [rising, single point]
COc1cc(C)ccc1OCCOCCOc1cccc2ccc(C)nc12 | 3.49% | 0.146 µM [falling, partial curve, poor fit] | 0.146 µM [falling, full curve, poor fit]
COc1ccc(CCNCC2C(Oc3ccc(Cl)cc3)C(=O)N2c2ccccc2C)cc1OC (configuration not stated) | -19% | – | –
O=C(Nc1ccccc1F)c1ccc(C(=O)c2ccccc2)cc1 | -45.5% | 29.1 µM [falling, single point] | 32.6 µM [falling, partial curve]
C/C=C\C=C/C(=O)Nc1cccc(C2=NOC3(C2)C[C@@H](C(N)=O)N(C(=O)C2(C)CC2)C3)c1 (some centres not stated) | 3.83% | – | 6.51 µM [rising, single point]
O=C(Nc1cccc(-c2ccc(N3CCCCC3)nn2)c1)C(F)(F)F | -59.5% | 16.4 µM [falling, single point] | –
CCn1c(SCC(=O)Nc2cc(C)on2)nnc1-c1cccc(C)c1 | -2.63% | – | –
Cc1sc2nc(CSc3ccccc3)nc(N3CCOCC3)c2c1C | 12.3% | – | 9.2 µM [rising, partial curve]
CCOc1cc(/C=N/NC(=O)Cn2nc([N+](=O)[O-])cc2C)cc(Br)c1OCc1ccccc1C | -2.83% | – | 0.13 µM [rising, full curve, poor fit]
COCCn1c(SCC(=O)c2cc(C)n(C)c2C)nc2ccccc2c1=O | – | 0.58 µM [rising, single point] | 1.3 µM [rising, single point]
COc1ccc(N2C(=NC(=O)CCC3CCCC3)SC3CS(=O)(=O)CC32)cc1 (configuration not stated) | 18.3% | – | –
CCCN(C(=O)c1cc(S(=O)(=O)N2CCCCCC2)ccc1OC)C1CCS(=O)(=O)C1 (configuration not stated) | 60% | 16.4 µM [rising, single point] | –
CN1CCN(C(=O)/C(=C\c2cccs2)NC(=O)c2ccccc2)CC1 | 34.3% | – | 29.1 µM [rising, single point]
CCc1c(C(=O)Nc2nnc(C3CC3)s2)csc1C | 6.81% | – | 5.8 µM [rising, single point]
CCCN1CCN(C(c2cc3cc4c(cc3[nH]c2=O)OCO4)c2nnnn2C(C)(C)C)CC1 (configuration not stated) | -18% | – | 29.1 µM [rising, single point]

# (list continues)

Compound,cell number change,AC50 [1],AC50 [2]
Nc1nnc(-c2ccc(Cl)cc2Cl)s1,34%,"1.46 µM [rising, full curve, poor fit]","0.731 µM [rising, single point]"
CCc1nn2c(=O)c(S(=O)(=O)Nc3cccc(F)c3)c(C)nc2s1,-2.63%,–,–
FC(F)(F)c1cccc(Nc2ncnc3ccccc23)c1,-12.3%,–,"5.8 µM [rising, partial curve]"
COCCC(=O)N1CCC(Oc2ccc(C(=O)NCCn3cccn3)cc2)CC1,26.2%,–,"29.1 µM [rising, single point]"
CN(CC(=O)Nc1ccc(Cl)cc1)CC(=O)Nc1cc(Cl)ccc1C#N,10.8%,–,"10.3 µM [rising, single point]"
COc1ccc(/C=C2/SC(=S)N(CC(=O)O)C2=O)cc1OCc1ccc(Cl)cc1,16.5%,–,–
Cc1ccccc1/C=C/C(=O)NCC(=O)N1CCC(N(C)C2CCCCC2C)CC1 (configuration not stated),–,"4.61 µM [falling, single point]","5.17 µM [falling, single point]"
CCOc1ccc(NC(=O)c2ccccc2NS(C)(=O)=O)cc1,-0.462%,–,"5.8 µM [rising, single point]"
CCOc1ccc(Cl)cc1S(=O)(=O)N1CCC(C(=O)NCc2ccncc2)CC1,9.66%,–,"0.082 µM [falling, partial curve, poor fit]"
CC1=CS(=O)(=O)CC1Sc1nc(C)n[nH]1 (configuration not stated),-24.2%,–,"29.1 µM [falling, single point]"
CN(C)S(=O)(=O)c1cccc(COc2ncnc3c(Cl)cc(Cl)cc23)c1,-0.403%,–,"2.91 µM [falling, partial curve]"
C=CC(COCc1ccccc1)N(C(=O)OC(C)(C)C)S(=O)(=O)c1ccccc1Br (configuration not stated),-0.85%,–,"0.58 µM [rising, full curve, poor fit]"
CC(C)c1nc(N2CCN(C(=O)c3ccccc3)CC2)c(C#N)c2c1COC(C)(C)C2,-29.4%,–,–
Cc1nc(Sc2ccccc2)c(C#N)c(C)c1[N+](=O)[O-],25.8%,–,"0.92 µM [rising, full curve]"
O=C(CC1SC(=NC2CCCCC2)NC1=O)Nc1ccccc1 (configuration not stated),-25.1%,–,"25.9 µM [falling, single point]"
CC(CNC(=O)c1cc(COc2ccc3ncccc3c2)on1)c1ccccc1 (configuration not stated),-22.4%,–,"29.1 µM [falling, single point]"
Cc1nnc(Nc2ccc(Cl)c(C(F)(F)F)c2)[nH]c1=O,–,–,"29.1 µM [rising, single point]"
O=C(O)CCCC(=O)N1CCC(C(O)(c2ccccc2)c2ccccc2)CC1,-41.1%,"29.1 µM [falling, single point]","20.6 µM [falling, single point]"
CCCc1ccc2oc(C(=O)NCCN3CCCC(O)C3)c(C)c2c1 (configuration not stated),0.552%,–,"6.51 µM [falling, single point]"
